Values from PubChem BioAssay AID1259405 (NCATS, 2018).

- Test: 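Knock-downs that lift recombinant protein yield in hamster ovary cells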 (primary screen)
- Cell system: Chinese hamster CHO-K1 ovary cells with stable secreted eGFP expression
- Knock-down reagent: single siRNA against mouse genes, 0.8 pmol siRNA per well (2 µl of 400 nM stock)
- Timing: 3 days
- Measured: 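Per-well intracellular GFP measured by laser scanning cytometry, plus viability from ATP luminescence, each relative to plate median of non-targeting control wells, in %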
- Reading the numbers: GFP, % of control: higher = more GFP per well, higher productivity; viability (ATP), % of control: higher = more viable cells (more ATP)
- Hit rule: 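a knock-down is called active if GFP reaches 120% or more of non-targeting control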
The whole screen tested about 50,000 reagents; below is a random part of them. In the full data, about 4,000 (8%) were called active. 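Mouse siRNA library applied to hamster cells; one well for each siRNA.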

The first 6 records as a preview:
| Target gene | PubChem SID | GFP, % of control | viability (ATP), % of control | Outcome |
| --- | --- | --- | --- | --- |
| Spock2 | SID363572862 | 56.7 | 61.1 | inactive |
| Spock2 | SID363577438 | 105 | 102 | inactive |
| Spock2 | SID363580958 | 52.5 | 74.3 | inactive |
| Slc25a14 | SID363569946 | 104 | 98.5 | inactive |
| Slc25a14 | SID363576986 | 80.9 | 89.2 | inactive |
| Slc25a14 | SID363578394 | 68.8 | 89.4 | inactive |

Main list, from the first entry:
| Target gene | PubChem SID | GFP, % of control | viability (ATP), % of control | Outcome |
| --- | --- | --- | --- | --- |
| Spock2 | SID363572862 | 56.7 | 61.1 | inactive |
| Spock2 | SID363577438 | 105 | 102 | inactive |
| Spock2 | SID363580958 | 52.5 | 74.3 | inactive |
| Slc25a14 | SID363569946 | 104 | 98.5 | inactive |
| Slc25a14 | SID363576986 | 80.9 | 89.2 | inactive |
| Slc25a14 | SID363578394 | 68.8 | 89.4 | inactive |
| Or5b108 | SID363544623 | 54.8 | 72.8 | inactive |
| Or5b108 | SID363550951 | 62.9 | 89.1 | inactive |
| Or5b108 | SID363557500 | 53.9 | 77.5 | inactive |
| Aldh1b1 | SID363575144 | 97 | 86.5 | inactive |
| Aldh1b1 | SID363580776 | 64.4 | 68.3 | inactive |
| Aldh1b1 | SID363582888 | 55.9 | 86.8 | inactive |
| Or13a18 | SID363544431 | 87.5 | 68 | inactive |
| Or13a18 | SID363550759 | 71.3 | 67.2 | inactive |
| Or13a18 | SID363557308 | 86 | 89.9 | inactive |
| 4930503L19Rik | SID363542600 | 81.4 | 65.9 | inactive |
| 4930503L19Rik | SID363552091 | 70.4 | 75.5 | inactive |
| 4930503L19Rik | SID363559696 | 68.2 | 89.9 | inactive |
| Rnf187 | SID363541761 | 118 | 63.4 | inactive |
| Rnf187 | SID363553353 | 42.6 | 32.1 | inactive |
| Rnf187 | SID363566677 | 97.1 | 74.9 | inactive |
| Aff1 | SID363573673 | 87.4 | 82.1 | inactive |
| Aff1 | SID363581417 | 67.8 | 68.4 | inactive |
| Aff1 | SID363583881 | 82.4 | 113 | inactive |
| Cog7 | SID363550272 | 65.4 | 91.4 | inactive |
| Cog7 | SID363564781 | 55.8 | 80.1 | inactive |
| Cog7 | SID363588326 | 53.4 | 82.5 | inactive |
| Or8d23 | SID363554736 | 18.4 | 24.2 | inactive |
| Or8d23 | SID363568183 | 100 | 81.4 | inactive |
| Or8d23 | SID363586242 | 71.8 | 62.5 | inactive |
| Slc22a6 | SID363547878 | 35.8 | 54 | inactive |
| Slc22a6 | SID363558647 | 57.4 | 63.5 | inactive |
| Slc22a6 | SID363560405 | 63.9 | 72.1 | inactive |
| Insm1 | SID363540381 | 68.6 | 72.8 | inactive |
| Insm1 | SID363542133 | 84.1 | 79.5 | inactive |
| Insm1 | SID363567049 | 131 | 111 | active |
| Slc38a8 | SID363539940 | 63.8 | 68.2 | inactive |
| Slc38a8 | SID363561241 | 185 | 131 | active |
| Slc38a8 | SID363564277 | 54.3 | 71.7 | inactive |
| Rps3a1 | SID363553899 | 40.9 | 27.1 | inactive |
| Rps3a1 | SID363561856 | 65.4 | 69.1 | inactive |
| Rps3a1 | SID363565594 | 37.8 | 23.6 | inactive |
| Tcstv1a | SID363556383 | 92.3 | 153 | inactive |
| Tcstv1a | SID363586833 | 73.7 | 94.3 | inactive |
| Tcstv1a | SID363588941 | 143 | 127 | active |
| Vtcn1 | SID363547189 | 59.4 | 54.5 | inactive |
| Vtcn1 | SID363550001 | 116 | 95.9 | inactive |
| Vtcn1 | SID363588055 | 88.9 | 121 | inactive |
| Tiparp | SID363556243 | 73.1 | 37.1 | inactive |
| Tiparp | SID363586693 | 24.8 | 35.6 | inactive |
| Tiparp | SID363588801 | 49.8 | 59.4 | inactive |
| Tas2r140 | SID363556252 | 93.4 | 66.2 | inactive |
| Tas2r140 | SID363586702 | 54.3 | 66.2 | inactive |
| Tas2r140 | SID363588810 | 65.9 | 84.4 | inactive |
| Ppard | SID363571091 | 47.2 | 48 | inactive |
| Ppard | SID363571443 | 136 | 92.3 | active |
| Ppard | SID363571795 | 84.2 | 50 | inactive |
| Ppp1r12c | SID363575200 | 98.2 | 93.9 | inactive |
| Ppp1r12c | SID363580832 | 88.1 | 54.5 | inactive |
| Ppp1r12c | SID363582944 | 92.5 | 86.7 | inactive |
| Ltbp2 | SID363582643 | 61.8 | 76 | inactive |
| Ltbp2 | SID363584403 | 70.4 | 99.6 | inactive |
| Pip | SID363554653 | 61.1 | 45.3 | inactive |
| Pip | SID363568100 | 55.2 | 85.3 | inactive |
| Pip | SID363586159 | 106 | 95.2 | inactive |
| Atm | SID363571011 | 128 | 94.6 | active |
| Rmnd5b | SID363540590 | 69.7 | 70.1 | inactive |
| Rmnd5b | SID363543041 | 97.4 | 86.5 | inactive |
| Rmnd5b | SID363552534 | 119 | 65.3 | inactive |
| Phax | SID363554619 | 42 | 38.4 | inactive |
| Phax | SID363568066 | 98.4 | 83.8 | inactive |
| Phax | SID363586125 | 128 | 91.4 | active |
| Cog8 | SID363581870 | 106 | 120 | inactive |
| Cog8 | SID363589364 | 87.8 | 79.4 | inactive |
| Zfp503 | SID363556719 | 93.6 | 69.5 | inactive |
| Zfp503 | SID363563623 | 68.6 | 65.9 | inactive |
| Zfp503 | SID363587169 | 89.9 | 88.7 | inactive |
| Or51g2 | SID363554345 | 89.5 | 82.8 | inactive |
| Or51g2 | SID363567792 | 86.8 | 82.3 | inactive |
| Or51g2 | SID363585149 | 66.7 | 89.5 | inactive |
| Dcaf17 | SID363542432 | 31.2 | 51.1 | inactive |
| Dcaf17 | SID363551923 | 77.8 | 56.4 | inactive |
| Dcaf17 | SID363559528 | 74.4 | 82.3 | inactive |
| Harbi1 | SID363539793 | 68.9 | 96.8 | inactive |
| Harbi1 | SID363561094 | 71.1 | 74.6 | inactive |
| Harbi1 | SID363565184 | 105 | 50.4 | inactive |
